Source: the supplement of paper PMC8728848
The other results are listed elsewhere or left out.

How the values were obtained:
Test in all cases: glycan array binding signal (z-score within array); higher = stronger binding
Conditions in all cases: glycan notation: IUPAC condensed, linker removed
[1] = biological target: Neu5Ac(a2-6)Gal(b1-3)GlcNAc(b1-3)[Gal(b1-4)GlcNAc(b1-6)]Gal(b1-4)Glc
Summary of the method: (§1)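 Columns mapping to the same glycan were averaged after glycan names were converted to IUPAC-condensed notation. The data come from 3228 arrays in the Consortium for Functional Glycomics database, limited to those with an available protein sequence. Binding is reported as a within-array Z-score averaged across arrays of one protein sequence and across linkers.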

Neu5Ac(a2-6)Gal(b1-4)Glc = biological target: Neu5Ac(a2-6)Gal(b1-4)Glc
Summary of the method: as §1

[2] = biological target: Neu5Ac(a2-6)Gal(b1-4)GlcNAc
Summary of the method: as §1

[3] = biological target: Neu5Ac(a2-6)Gal(b1-4)GlcNAc(b1-2)Man
Summary of the method: as §1

[4] = biological target: Neu5Ac(a2-6)Gal(b1-4)GlcNAc(b1-2)Man(a1-3)Man(b1-4)GlcNAc(b1-4)GlcNAc
Summary of the method: as §1

[5] = biological target: Neu5Ac(a2-6)Gal(b1-4)GlcNAc(b1-2)Man(a1-3)[Gal(b1-4)GlcNAc(b1-2)Man(a1-6)]Man(b1-4)GlcNAc(b1-4)GlcNAc
Summary of the method: as §1

[6] = biological target: Neu5Ac(a2-6)Gal(b1-4)GlcNAc(b1-2)Man(a1-3)[GlcNAc(b1-2)Man(a1-6)]Man(b1-4)GlcNAc(b1-4)GlcNAc
Summary of the method: as §1

[7] = biological target: Neu5Ac(a2-6)Gal(b1-4)GlcNAc(b1-2)Man(a1-3)[GlcNAc(b1-4)][Neu5Ac(a2-6)Gal(b1-4)GlcNAc(b1-2)Man(a1-6)]Man(b1-4)GlcNAc(b1-4)GlcNAc
Summary of the method: as §1

[8] = biological target: Neu5Ac(a2-6)Gal(b1-4)GlcNAc(b1-2)Man(a1-3)[Man(a1-6)]Man(b1-4)GlcNAc(b1-4)GlcNAc
Summary of the method: as §1

[9] = biological target: Neu5Ac(a2-6)Gal(b1-4)GlcNAc(b1-2)Man(a1-3)[Neu5Ac(a2-3)Gal(b1-4)GlcNAc(b1-2)Man(a1-6)]Man(b1-4)GlcNAc(b1-4)GlcNAc
Summary of the method: as §1

[10] = biological target: Neu5Ac(a2-6)Gal(b1-4)GlcNAc(b1-2)Man(a1-3)[Neu5Ac(a2-6)Gal(b1-4)GlcNAc(b1-2)Man(a1-6)]Man(b1-4)GlcNAc(b1-4)GlcNAc
Summary of the method: as §1

[11] = biological target: Neu5Ac(a2-6)Gal(b1-4)GlcNAc(b1-2)Man(a1-3)[Neu5Ac(a2-6)Gal(b1-4)GlcNAc(b1-2)Man(a1-6)]Man(b1-4)GlcNAc(b1-4)[Fuc(a1-6)]GlcNAc
Summary of the method: as §1

[12] = biological target: Neu5Ac(a2-6)Gal(b1-4)GlcNAc(b1-2)Man(a1-6)Man(b1-4)GlcNAc(b1-4)GlcNAc
Summary of the method: as §1

[13] = biological target: Neu5Ac(a2-6)Gal(b1-4)GlcNAc(b1-2)Man(a1-6)[Gal(b1-4)GlcNAc(b1-2)Man(a1-3)]Man(b1-4)GlcNAc(b1-4)GlcNAc
Summary of the method: as §1

[14] = biological target: Neu5Ac(a2-6)Gal(b1-4)GlcNAc(b1-2)Man(a1-6)[GlcNAc(b1-2)Man(a1-3)]Man(b1-4)GlcNAc(b1-4)GlcNAc
Summary of the method: as §1

[15] = biological target: Neu5Ac(a2-6)Gal(b1-4)GlcNAc(b1-2)Man(a1-6)[Man(a1-3)]Man(b1-4)GlcNAc(b1-4)GlcNAc
Summary of the method: as §1

[16] = biological target: Neu5Ac(a2-6)Gal(b1-4)GlcNAc(b1-2)[Neu5Ac(a2-6)Gal(b1-4)GlcNAc(b1-4)]Man(a1-3)[GlcNAc(b1-4)][Neu5Ac(a2-6)Gal(b1-4)GlcNAc(b1-2)[Neu5Ac(a2-6)Gal(b1-4)GlcNAc(b1-6)]Man(a1-6)]Man(b1-4)GlcNAc(b1-4)GlcNAc
Summary of the method: as §1

[17] = biological target: Neu5Ac(a2-6)Gal(b1-4)GlcNAc(b1-2)[Neu5Ac(a2-6)Gal(b1-4)GlcNAc(b1-4)]Man(a1-3)[GlcNAc(b1-4)][Neu5Ac(a2-6)Gal(b1-4)GlcNAc(b1-4)Man(a1-6)]Man(b1-4)GlcNAc(b1-4)GlcNAc
Summary of the method: as §1

[18] = biological target: Neu5Ac(a2-6)Gal(b1-4)GlcNAc(b1-2)[Neu5Ac(a2-6)Gal(b1-4)GlcNAc(b1-6)]Man(a1-6)[Neu5Ac(a2-6)Gal(b1-4)GlcNAc(b1-2)Man(a1-3)][GlcNAc(b1-4)]Man(b1-4)GlcNAc(b1-4)GlcNAc
Summary of the method: as §1

[19] = biological target: Neu5Ac(a2-6)Gal(b1-4)GlcNAc(b1-3)Gal(b1-3)GlcNAc
Summary of the method: as §1

[20] = biological target: Neu5Ac(a2-6)Gal(b1-4)GlcNAc(b1-3)Gal(b1-4)GlcNAc
Summary of the method: as §1

[21] = biological target: Neu5Ac(a2-6)Gal(b1-4)GlcNAc(b1-3)Gal(b1-4)GlcNAc(b1-2)Man(a1-3)[Neu5Ac(a2-6)Gal(b1-4)GlcNAc(b1-3)Gal(b1-4)GlcNAc(b1-2)Man(a1-6)]GalNAc
Summary of the method: as §1

[22] = biological target: Neu5Ac(a2-6)Gal(b1-4)GlcNAc(b1-3)Gal(b1-4)GlcNAc(b1-3)Gal(b1-4)GlcNAc
Summary of the method: as §1

B1: Awp3 (Candida glabrata), B4UN32 (protein)
chain: MISFVTLLAILGLLSISWADQTVRSVAGDQRVTDPVIVGDNSILDYYGGSNYDFSNNFEIGRGTLYIGKESYFSSFQSAPTDVPNSFHLLIKNTNNLQNNGQFIIENIKRHANQCSNSSIQVFPINFQNDGEFEIISGGVEGRCCLPTSVIAPQNFLNNGKFYYKVLTDTGSIYSGSCMQNVDIGASTTTTVNNNLWEFTGSINAQINGAVSGAAQINLDGSNMFVNANTFSGQVVNLINGGSFLQTSDPLSNIVVINGLGTSDTGVTSIAVKGKGKSFTYNPSSGIVKLTTVEGKTYAYQIGCGYNTKKFITNNDSGASYESADNFFVLTYSEPYSPQTCQLENSSIFSSNFISTSTSSSSSSSSASSLPSSMSSSLPSSLSSSLSSSLSSSMSSSMSSLFIIPPPYTTTRSSGSSIIDTEIVSFYSTTDSPGHTITGTTTTTLYGPHTHSSVSTPSSSSESSTTSNSSIESSSLPHTSVSSTPESSITPSSNTISSSPTSDFSSVQSSSIMESSSVVASSSVINSSSIVDSSSSSASSLPSSMSSSLSSSMSSSLPSSMSSSLSSSLSSSLSSSMSSSMSSLFIIPPPYTTTRSSGSSIIDTEIVSFYSTTDSPGHTITGTTTTTLYGPHTHSSVSTPSSSSESSTTSNSSIESSSLPHTSVSSTPESSITPSSNTISSSPTSDFSSVQSSSIMESSSVVASSSVINSSSIVDSSSSSASSLPSSMPSSLPSSMSSSLSSSMSSSLSSSLSSSLSSSMSSSMSSLFIIPPPYTTTRSSGSSIIDTEIVSFYSTTDSPGHTITGTTTTTLYGPHTHSSVSTPSSSSESSTTSNSSIESSSLPHTSVSSTPESSITPSSNTISSSPTSDFSSVQSSSIMESSSVVASSSATQSSSVINSSSIVDSSSSSASSLPSSMPSSLPSSLSSSLSSSLSSSMSSSMSSLFIIPPPYTTTRSSGSSIIDTEIVSFYSTTDSPGHTITGTTTTTLYESSIYSSSSSTIQESELSNTSRTTMTSNSSVSISSTSSRSSFSNTKSSTIVISQSASLPDSKTDIILSTSSNIGYSSRSLLSDLGTSISDSDIHHSVLHSTESYSSNESGTNPFTSIASLSNFIPESSSHTSTALGSENSVISSDILTTMSHPVATNSGDKPTTPKRSEQVSTTMTSSGPTPDTSSFDTDGMSAYSRPEFTTNSLEVNKSSTSQLGNNKQTFSNLQLESTRPHSENEVDNNTRLLQSIQQSSTYGTNNVNPLSPTGSISIPLTEDGQGDNNNWNSPATNDLCTQISFNLTATTITVTDRITITDSIHDISSEVITSYIYQTIVDQKTVTQTVDGKSLANKMSSIPKPSSRSLIQPQPPVAIELQEGAASTSRVSLVSLFISIILVLL
glycan array binding signal (z-score) [1]: -0.493
glycan array binding signal (z-score) (Neu5Ac(a2-6)Gal(b1-4)Glc): -0.409
glycan array binding signal (z-score) [2]: -1.29
glycan array binding signal (z-score) [3]: -0.199
glycan array binding signal (z-score) [4]: -0.609
glycan array binding signal (z-score) [5]: -1.31
glycan array binding signal (z-score) [6]: -1.05
glycan array binding signal (z-score) [7]: 0.932
glycan array binding signal (z-score) [8]: 0.414
glycan array binding signal (z-score) [9]: -1.55
glycan array binding signal (z-score) [10]: -0.993
glycan array binding signal (z-score) [11]: 2.07
glycan array binding signal (z-score) [12]: 1.39
glycan array binding signal (z-score) [13]: 1.17
glycan array binding signal (z-score) [14]: 0.603
glycan array binding signal (z-score) [15]: 0.591
glycan array binding signal (z-score) [16]: 0.723
glycan array binding signal (z-score) [17]: -1.24
glycan array binding signal (z-score) [18]: -0.372
glycan array binding signal (z-score) [19]: 1.1
glycan array binding signal (z-score) [20]: -1.68
glycan array binding signal (z-score) [21]: 3.08
glycan array binding signal (z-score) [22]: 0.879
